US10525115B2 (Immatics Biotechnologies GmbH, priority 2014, dated 2020)

Key:
Set-up in all cases: species or system human
BMNC of healthy donors = assay: HLA class I ligandome analysis (LC-MS/MS) of healthy donor BMNC; details: HLA class I ligandome, 5 BMNC samples; second figure of the cell
primary AML samples = assay: HLA class I ligandome analysis (W6/32 immunoaffinity purification, LC-MS/MS) of primary AML samples; details: for Number of positive AMLs: HLA class I ligandome, 15 AML samples; for AML-exclusivity with regard to HLA presentation: versus PBMC and BMNC of healthy donors
[1] = system: cancer tissues in comparison to non-cancerous tissues and organs; assay: Presentation profile / over-presentation by label-free LC-MS (XPRESIDENT), tumor versus normal tissues, other proliferative diseases; details: other proliferative diseases / organs (other than AML) that over- or exclusively present the peptide; Table 5
PBMC of healthy donors = assay: HLA class I ligandome analysis (LC-MS/MS) of healthy donor PBMC; details: HLA class I ligandome, 30 PBMC samples; first figure of the cell

Substance	Number of positive healthy donors (BMNC) (BMNC of healthy donors)	Number of positive AMLs (primary AML samples)	Proliferative disease and location thereof [1]	Number of positive healthy donors (PBMC) (PBMC of healthy donors)	AML-exclusivity with regard to HLA presentation (primary AML samples)
432 (IAFFDVRTF; listed as Homo sapiens) [compound 432]	0/0	1	stomach, metastatic, ovary, granulosa cell tumor	0/0	
433 (LSAGKTSFSF; listed as Homo sapiens) [compound 433]	0/0	1	stomach, metastatic, ovary, granulosa cell tumor	0/0	
434 (VSNKYGLVF; listed as Homo sapiens) [compound 434]	0	0	stomach, metastatic, ovary, granulosa cell tumor	1	
435 (GEVDVEQHTL; listed as Homo sapiens) [compound 435]	0	2	colon or rectum, colon, adenocarcinoma	2	
436 (VDVEQHTL; listed as Homo sapiens) [compound 436]	0/0	1	colon or rectum, colon, adenocarcinoma	0/0	
437 (DAADELSVGRY; listed as Homo sapiens) [compound 437]	0/0	1	kidney, clear cell renal cell carcinoma, colon, adenoma	0/0	AML-exclusivity
438 (LSEADVRA; listed as Homo sapiens) [compound 438]	0/0	1	stomach, adenocarcinoma, lung, adenocarcinoma	0/0	
439 (ELTLGEFLK; listed as Homo sapiens) [compound 439]	0	2	stomach, metastatic, ovary, Mullerian mixed; tumor	2	
440 (ELTLGEFLKL; listed as Homo sapiens) [compound 440]	0	2	stomach, metastatic, ovary, Mullerian mixed; tumor	1	
441 (LTLGEFLK; listed as Homo sapiens) [compound 441]	0	1	stomach, metastatic, ovary, Mullerian mixed; tumor	1	
443 (TLGEFLKL; listed as Homo sapiens) [compound 443]	0	2	stomach, metastatic, ovary, Mullerian mixed; tumor	1	
444 (KTYTKSSHLK; listed as Homo sapiens) [compound 444]	0	4	stomach, adenocarcinoma, brain, meningioma	5	
445 (SQLTTLSFY; listed as Homo sapiens) [compound 445]	0	0	lung, non-small cell lung carcinoma, omentum, adenocarcinoma	1	
446 (KMQEKKKLQ; listed as Homo sapiens) [compound 446]	0/0	1	liver, hepatocellular carcinoma, lung, large cell carcinoma	0/0	
447 (LLGHLPAEI; listed as Homo sapiens) [compound 447]	0/0	1	liver, hepatocellular carcinoma, lung, large cell carcinoma	0/0	AML-exclusivity
